Values of other authors in patent US12318421B2 (priority 2020, dated 2025).
At least one compound was matched to its structure with a doubt left.

Biological target: α-glucosidase
Conditions: values disclosed in references

Structure (SMILES): O=c1cc(-c2ccc(O)cc2)oc2c([C@@H]3O[C@H](CO)[C@@H](O)[C@H](O)[C@H]3O)c(O)cc(O)c12 [vitexin]
- IC50 of α-glucosidase activity disclosed in references: 23.9 µg/mL
